Reference: US10648917B2, “Luminescent compositions and applications thereof” (THE PENN STATE RESEARCH FOUNDATION, priority 2015, dated 2020)
At least one structure is not confirmed: it was looked up by name or label, or the drawing left a doubt.

Assay: Time-resolved fluorescence lifetime (TCSPC)
Type: physicochemical
Settings: one-exponential decay, pulsed excitation at 352 nm, maximum emission wavelength
Experimental: Fluorescence lifetimes were determined by using the Time-Correlation Single Photon Counting (TCSPC) accessory to the FluroMax-4 (Horiba, NJ). NanoLED pulse light sources at wavelengths of 352 nm and 390 nm were used for excitation. For each decay curve, 10,000 photons were collected. Fluorescence lifetime decays were fitted with an exponential series according to equation 1 below:
[formula] where F(t) is the lifetime decay function with respect to time t, Ti is the lifetime value of the emitting species, A is the background offset, and Bi is the pre-exponential function of the emitting species. The method of least squares was used to quantify χ^2 based on the decay data and the fitting function, where χ^2 values smaller than 1.2 indicates a good fit; and values above 1.2 indicate need for multiple exponential fitting in equation 1. […]
Absorbance Spectra were recorded on Tecan Infinite M200 Pro UV-vis spectroscopy, and fluorescence spectra were recorded on Horiba FluoroMax-4 fluorospectroscopy at concentrations below 0.1 O.D. unless otherwise indicated. Quantum Yields were measured on the Quantum φ Integrating Sphere accessory to the FluoroMax-4, while lifetime measurements were determined through the Time-Correlation Single Photon Counting (TCSPC) accessory to the FluroMax-4. […] Emission was collected at the fluorescence λmax, unless otherwise indicated. […]

SMILES: O=C1OC2(c3ccc(O)cc3Oc3cc(O)ccc32)c2ccccc21 [Fluorescein, reference compound]
- fluorescence lifetime τ: 4.19 ns
